# From the supplement of paper PMC8728848
# This is one part of the list.
# B1: Flo1 (Saccharomyces cerevisiae), P32768 (protein)
# chain: SGATEACLPAGQRKSGMNINFYQYSLKDSSTYSNAAYMAYGYASKTKLGSVGGQTDISIDYNIPCVSSSGTFPCPQEDSYGNWGCKGMGACSNSQGIAYWSTDLFGFYTTPTNVTLEMTGYFLPPQTGSYTFKFATVDDSAILSVGGATAFNCCAQQQPPITSTNFTIDGIKPWGGSLPPNIEGTVYMYAGYYYPMKVVYSNAVSWGTLPISVTLPDGTTVSDDFEGYVYSFDDDLSQSNCTVPDPSNY
# Assays:
# Experiment in all cases: glycan array binding signal (z-score within array); higher = stronger binding
# Conditions in all cases: glycan notation: IUPAC condensed, linker removed
# [1] = target: Fuc(a1-2)Gal(b1-3)[Fuc(a1-4)]GlcNAc(b1-3)[Gal(b1-4)GlcNAc(b1-6)]Gal(b1-4)Glc
# In short: (§1)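 Negative Z-scores can be read as non-binding. The Z-score is calculated within each array and then averaged across arrays of one protein sequence at different concentrations or buffers and across linkers. Arrays, 3228 in all, were curated from the Consortium for Functional Glycomics database and kept only where the protein sequence was available.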
# [2] = target: Fuc(a1-2)Gal(b1-4)Fuc(a1-3)]GlcNAc(b1-2)Man(a1-3)[Fuc(a1-2)Gal(b1-4)[Fuc(a1-3)]GlcNAc(b1-2)Man(a1-6)]Man(b1-4)GlcNAc(b1-4)GlcNAc
# In short: as §1
# [3] = target: Fuc(a1-2)Gal(b1-4)Glc
# In short: as §1
# [4] = target: Fuc(a1-2)Gal(b1-4)Glc6S
# In short: as §1
# [5] = target: Fuc(a1-2)Gal(b1-4)GlcNAc
# In short: as §1
# [6] = target: Fuc(a1-2)Gal(b1-4)GlcNAc(b1-2)Man
# In short: as §1
# [7] = target: Fuc(a1-2)Gal(b1-4)GlcNAc(b1-2)Man(a1-3)[Fuc(a1-2)Gal(b1-4)GlcNAc(b1-2)Man(a1-6)]Man(b1-4)GlcNAc(b1-4)GlcNAc
# In short: as §1
# [8] = target: Fuc(a1-2)Gal(b1-4)GlcNAc(b1-2)Man(a1-3)[Fuc(a1-2)Gal(b1-4)GlcNAc(b1-2)Man(a1-6)]Man(b1-4)GlcNAc(b1-4)[Fuc(a1-6)]GlcNAc
# In short: as §1
# [9] = target: Fuc(a1-2)Gal(b1-4)GlcNAc(b1-2)[Fuc(a1-2)Gal(b1-4)GlcNAc(b1-4)]Man(a1-3)[Fuc(a1-2)Gal(b1-4)GlcNAc(b1-2)Man(a1-6)]Man(b1-4)GlcNAc(b1-4)GlcNAc
# In short: as §1
# [10] = target: Fuc(a1-2)Gal(b1-4)GlcNAc(b1-3)Gal(b1-4)GlcNAc
# In short: as §1
# [11] = target: Fuc(a1-2)Gal(b1-4)GlcNAc(b1-3)Gal(b1-4)GlcNAc(b1-2)Man(a1-3)[Fuc(a1-2)Gal(b1-4)GlcNAc(b1-3)Gal(b1-4)GlcNAc(b1-2)Man(a1-6)]Man(b1-4)GlcNAc(b1-4)GlcNAc
# In short: as §1
# [12] = target: Fuc(a1-2)Gal(b1-4)GlcNAc(b1-3)Gal(b1-4)GlcNAc(b1-3)Gal(b1-4)GlcNAc
# In short: as §1
# [13] = target: Fuc(a1-2)Gal(b1-4)GlcNAc(b1-3)GalNAc
# In short: as §1
# [14] = target: Fuc(a1-2)Gal(b1-4)GlcNAc(b1-3)[Fuc(a1-2)Gal(b1-4)GlcNAc(b1-6)]GalNAc
# In short: as §1
# [15] = target: Fuc(a1-2)Gal(b1-4)GlcNAc(b1-3)[Fuc(a1-3)[Gal(b1-4)]GlcNAc(b1-6)]Gal(b1-4)Glc
# In short: as §1
# [16] = target: Fuc(a1-2)Gal(b1-4)GlcNAc(b1-6)GalNAc
# In short: as §1
# [17] = target: Fuc(a1-2)Gal(b1-4)GlcNAc6S
# In short: as §1
# [18] = target: Fuc(a1-2)Gal(b1-4)[Fuc(a1-3)]GlcNAc
# In short: as §1
# [19] = target: Fuc(a1-2)Gal(b1-4)[Fuc(a1-3)]GlcNAc(b1-2)Man(a1-3)[Fuc(a1-2)Gal(b1-4)[Fuc(a1-3)]GlcNAc(b1-2)Man(a1-6)]Man(b1-4)GlcNAc(b1-4)GlcNAc
# In short: as §1
# [20] = target: Fuc(a1-2)Gal(b1-4)[Fuc(a1-3)]GlcNAc(b1-2)Man(a1-3)[Fuc(a1-2)Gal(b1-4)[Fuc(a1-3)]GlcNAc(b1-2)Man(a1-6)]Man(b1-4)GlcNAc(b1-4)[Fuc(a1-6)]GlcNAc
# In short: as §1
# [21] = target: Fuc(a1-2)Gal(b1-4)[Fuc(a1-3)]GlcNAc(b1-2)[Fuc(a1-2)Gal(b1-4)[Fuc(a1-3)]GlcNAc(b1-4)]Man(a1-3)[Fuc(a1-2)Gal(b1-4)[Fuc(a1-3)]GlcNAc(b1-2)Man(a1-6)]Man(b1-4)GlcNAc(b1-4)GlcNAc
# In short: as §1
# [22] = target: Fuc(a1-2)Gal(b1-4)[Fuc(a1-3)]GlcNAc(b1-3)Gal(b1-4)[Fuc(a1-3)]GlcNAc
# In short: as §1
# [23] = target: Fuc(a1-2)Gal(b1-4)[Fuc(a1-3)]GlcNAc(b1-3)Gal(b1-4)[Fuc(a1-3)]GlcNAc(b1-3)Gal(b1-4)[Fuc(a1-3)]GlcNAc
# In short: as §1
binder,measurement,setting,value
B1,glycan array binding signal (z-score),[1],0.802
same,glycan array binding signal (z-score),[2],3.01
same,glycan array binding signal (z-score),[3],-0.432
same,glycan array binding signal (z-score),[4],-0.12
same,glycan array binding signal (z-score),[5],-0.151
same,glycan array binding signal (z-score),[6],-0.317
same,glycan array binding signal (z-score),[7],1.06
same,glycan array binding signal (z-score),[8],-0.383
same,glycan array binding signal (z-score),[9],0.883
same,glycan array binding signal (z-score),[10],-0.511
same,glycan array binding signal (z-score),[11],-0.477
same,glycan array binding signal (z-score),[12],-0.084
same,glycan array binding signal (z-score),[13],0.478
same,glycan array binding signal (z-score),[14],-0.167
same,glycan array binding signal (z-score),[15],0.001
same,glycan array binding signal (z-score),[16],0.315
same,glycan array binding signal (z-score),[17],-0.166
same,glycan array binding signal (z-score),[18],-0.115
same,glycan array binding signal (z-score),[19],2.48
same,glycan array binding signal (z-score),[20],0.045
same,glycan array binding signal (z-score),[21],1.04
same,glycan array binding signal (z-score),[22],0.346
same,glycan array binding signal (z-score),[23],0.144

# 2 consecutive entries from above:
binder,measurement,setting,value
B1,glycan array binding signal (z-score),[2],3.01
same,glycan array binding signal (z-score),[3],-0.432
